For the assay, the target named is Flag-PKM2 (pyruvate kinase M2 isoform), expressed in U251 cells (UniProt P14618). As to the kind of experiment: affinity purification with mass spectrometry; Flag-PKM2 immunoprecipitated with Flag beads from U251 cells treated with or without etoposide for 1 h; mass spectrometry of PKM2-associated proteins.

Sequences of proteins named here, by UniProt entry; tags and fusion partners are left off.
UniProt P14618: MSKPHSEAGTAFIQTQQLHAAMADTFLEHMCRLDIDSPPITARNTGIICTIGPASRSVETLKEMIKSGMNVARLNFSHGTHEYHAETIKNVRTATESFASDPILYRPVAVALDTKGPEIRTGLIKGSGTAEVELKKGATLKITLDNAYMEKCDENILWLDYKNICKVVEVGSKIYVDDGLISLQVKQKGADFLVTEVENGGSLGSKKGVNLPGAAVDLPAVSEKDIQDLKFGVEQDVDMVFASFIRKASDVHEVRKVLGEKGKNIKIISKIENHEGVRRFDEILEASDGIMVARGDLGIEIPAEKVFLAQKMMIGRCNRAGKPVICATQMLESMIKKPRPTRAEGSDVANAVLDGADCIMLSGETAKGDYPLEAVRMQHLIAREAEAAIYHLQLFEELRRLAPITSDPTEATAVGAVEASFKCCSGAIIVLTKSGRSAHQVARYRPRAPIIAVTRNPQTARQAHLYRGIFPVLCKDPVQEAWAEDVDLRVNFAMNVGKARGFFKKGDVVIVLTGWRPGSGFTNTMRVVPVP
UniProt Q9Y5B9: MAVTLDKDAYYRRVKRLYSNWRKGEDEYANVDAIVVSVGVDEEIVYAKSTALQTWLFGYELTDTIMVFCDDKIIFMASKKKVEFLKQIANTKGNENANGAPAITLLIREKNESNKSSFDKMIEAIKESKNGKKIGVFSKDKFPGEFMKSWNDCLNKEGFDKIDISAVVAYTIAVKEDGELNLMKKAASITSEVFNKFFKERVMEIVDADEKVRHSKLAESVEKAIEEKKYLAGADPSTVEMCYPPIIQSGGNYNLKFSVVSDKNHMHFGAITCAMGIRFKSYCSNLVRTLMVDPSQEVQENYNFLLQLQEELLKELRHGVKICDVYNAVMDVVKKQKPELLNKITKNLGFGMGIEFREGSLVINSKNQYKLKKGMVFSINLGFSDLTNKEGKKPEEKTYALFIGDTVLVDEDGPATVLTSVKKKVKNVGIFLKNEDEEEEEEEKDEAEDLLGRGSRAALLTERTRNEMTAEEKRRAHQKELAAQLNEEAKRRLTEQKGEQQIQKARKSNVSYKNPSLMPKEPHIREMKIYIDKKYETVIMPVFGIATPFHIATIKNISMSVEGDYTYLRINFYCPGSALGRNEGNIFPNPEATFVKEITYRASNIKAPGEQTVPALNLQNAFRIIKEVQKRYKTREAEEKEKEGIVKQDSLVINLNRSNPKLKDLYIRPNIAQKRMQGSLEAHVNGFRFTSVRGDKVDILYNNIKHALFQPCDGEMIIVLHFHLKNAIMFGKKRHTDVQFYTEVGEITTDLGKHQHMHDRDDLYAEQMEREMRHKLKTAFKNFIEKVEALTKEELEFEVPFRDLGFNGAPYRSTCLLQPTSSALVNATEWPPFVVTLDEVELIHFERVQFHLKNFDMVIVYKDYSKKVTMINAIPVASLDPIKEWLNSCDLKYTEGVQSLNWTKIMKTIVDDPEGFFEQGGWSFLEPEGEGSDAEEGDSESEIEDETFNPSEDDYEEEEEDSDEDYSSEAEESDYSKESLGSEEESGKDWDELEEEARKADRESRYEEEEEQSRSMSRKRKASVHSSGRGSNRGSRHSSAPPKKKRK

Among the data in paper PMC8922107 are binding values, retold here.

Results are given in words; binding and its absence hold for the method and conditions named. In cells and extracts the contact can be indirect. A yes stands for co-enrichment or nearness to the bait. Other partners may have been found.

Consider “SPT16, subunit of the FACT complex, endogenous in U251 cells (from UniProt Q9Y5B9 1-1047)”, for which the binding result is reported as “binds”.
